Assay results published in PMC10865846.
Results are given in words; binding and its absence hold for the method and conditions named. Binding seen in cells or lysates may run through a third protein. Some results given as binding are weak or reduced against the parent protein; the word gives no strength.

The chains behind the UniProt entries cited, without tags or fusion partners.
UniProt Q9ULT8: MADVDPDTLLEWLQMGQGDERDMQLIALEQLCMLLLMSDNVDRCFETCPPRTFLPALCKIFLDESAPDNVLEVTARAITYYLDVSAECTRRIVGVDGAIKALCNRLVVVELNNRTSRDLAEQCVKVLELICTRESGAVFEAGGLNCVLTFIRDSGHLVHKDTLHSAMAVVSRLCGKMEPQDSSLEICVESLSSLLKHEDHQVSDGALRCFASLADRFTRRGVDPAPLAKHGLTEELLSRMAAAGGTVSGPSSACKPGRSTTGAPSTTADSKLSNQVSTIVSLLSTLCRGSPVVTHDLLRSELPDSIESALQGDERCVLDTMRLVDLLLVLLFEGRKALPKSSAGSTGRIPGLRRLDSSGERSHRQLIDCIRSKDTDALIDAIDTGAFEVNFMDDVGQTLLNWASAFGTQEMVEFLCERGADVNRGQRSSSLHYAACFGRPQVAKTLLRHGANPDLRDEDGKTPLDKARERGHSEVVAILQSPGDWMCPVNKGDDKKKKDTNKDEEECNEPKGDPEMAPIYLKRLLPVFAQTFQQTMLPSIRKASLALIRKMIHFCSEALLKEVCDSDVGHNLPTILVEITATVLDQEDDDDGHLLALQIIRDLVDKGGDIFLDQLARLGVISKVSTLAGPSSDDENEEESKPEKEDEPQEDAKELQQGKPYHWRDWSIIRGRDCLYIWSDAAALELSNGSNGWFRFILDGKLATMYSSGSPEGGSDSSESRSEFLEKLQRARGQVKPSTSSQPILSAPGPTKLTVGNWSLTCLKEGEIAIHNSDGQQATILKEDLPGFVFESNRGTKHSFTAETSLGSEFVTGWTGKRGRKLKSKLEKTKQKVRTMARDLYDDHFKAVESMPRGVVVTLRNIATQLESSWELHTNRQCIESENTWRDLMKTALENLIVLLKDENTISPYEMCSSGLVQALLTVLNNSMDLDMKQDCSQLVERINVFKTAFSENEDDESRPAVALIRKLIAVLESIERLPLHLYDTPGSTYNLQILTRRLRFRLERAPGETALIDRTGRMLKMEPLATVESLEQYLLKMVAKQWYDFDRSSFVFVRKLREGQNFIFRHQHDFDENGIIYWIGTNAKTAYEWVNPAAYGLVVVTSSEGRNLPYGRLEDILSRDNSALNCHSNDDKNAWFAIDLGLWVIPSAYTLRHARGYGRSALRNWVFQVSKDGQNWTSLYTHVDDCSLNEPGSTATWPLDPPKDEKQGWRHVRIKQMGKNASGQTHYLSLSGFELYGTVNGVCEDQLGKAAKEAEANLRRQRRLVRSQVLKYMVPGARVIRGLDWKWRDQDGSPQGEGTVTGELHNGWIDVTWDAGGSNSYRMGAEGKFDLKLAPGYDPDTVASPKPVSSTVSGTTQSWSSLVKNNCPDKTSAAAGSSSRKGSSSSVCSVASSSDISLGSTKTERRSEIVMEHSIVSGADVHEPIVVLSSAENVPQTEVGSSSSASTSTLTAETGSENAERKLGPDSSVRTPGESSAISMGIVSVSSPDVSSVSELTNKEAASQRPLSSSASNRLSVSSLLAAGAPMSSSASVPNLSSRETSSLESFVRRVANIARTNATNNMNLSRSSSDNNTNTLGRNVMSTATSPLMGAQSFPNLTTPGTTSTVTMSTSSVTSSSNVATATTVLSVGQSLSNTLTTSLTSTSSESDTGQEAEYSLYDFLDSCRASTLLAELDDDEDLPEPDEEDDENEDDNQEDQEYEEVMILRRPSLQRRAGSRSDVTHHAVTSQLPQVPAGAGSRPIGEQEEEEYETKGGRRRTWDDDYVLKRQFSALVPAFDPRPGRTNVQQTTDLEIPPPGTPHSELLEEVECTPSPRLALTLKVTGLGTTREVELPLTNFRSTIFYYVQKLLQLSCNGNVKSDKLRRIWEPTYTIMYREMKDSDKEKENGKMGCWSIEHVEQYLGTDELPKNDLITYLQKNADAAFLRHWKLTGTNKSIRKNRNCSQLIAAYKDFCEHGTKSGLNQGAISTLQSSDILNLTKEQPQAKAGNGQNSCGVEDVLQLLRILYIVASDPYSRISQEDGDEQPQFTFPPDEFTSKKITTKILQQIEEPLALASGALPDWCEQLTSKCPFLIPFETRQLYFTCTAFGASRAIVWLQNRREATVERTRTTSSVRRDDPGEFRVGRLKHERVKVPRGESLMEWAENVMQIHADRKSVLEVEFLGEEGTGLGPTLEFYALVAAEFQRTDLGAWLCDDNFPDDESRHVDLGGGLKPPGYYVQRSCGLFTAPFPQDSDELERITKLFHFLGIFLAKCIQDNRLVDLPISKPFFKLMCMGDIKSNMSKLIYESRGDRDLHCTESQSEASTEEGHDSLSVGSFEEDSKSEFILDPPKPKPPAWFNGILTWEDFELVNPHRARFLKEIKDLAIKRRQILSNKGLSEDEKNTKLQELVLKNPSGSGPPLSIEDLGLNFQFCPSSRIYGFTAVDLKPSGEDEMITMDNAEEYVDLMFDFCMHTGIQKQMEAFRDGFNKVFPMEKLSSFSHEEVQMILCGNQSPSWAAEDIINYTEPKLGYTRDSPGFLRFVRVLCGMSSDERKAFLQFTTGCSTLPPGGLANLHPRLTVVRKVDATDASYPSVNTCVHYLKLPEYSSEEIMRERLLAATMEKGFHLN
UniProt Q8IYM9: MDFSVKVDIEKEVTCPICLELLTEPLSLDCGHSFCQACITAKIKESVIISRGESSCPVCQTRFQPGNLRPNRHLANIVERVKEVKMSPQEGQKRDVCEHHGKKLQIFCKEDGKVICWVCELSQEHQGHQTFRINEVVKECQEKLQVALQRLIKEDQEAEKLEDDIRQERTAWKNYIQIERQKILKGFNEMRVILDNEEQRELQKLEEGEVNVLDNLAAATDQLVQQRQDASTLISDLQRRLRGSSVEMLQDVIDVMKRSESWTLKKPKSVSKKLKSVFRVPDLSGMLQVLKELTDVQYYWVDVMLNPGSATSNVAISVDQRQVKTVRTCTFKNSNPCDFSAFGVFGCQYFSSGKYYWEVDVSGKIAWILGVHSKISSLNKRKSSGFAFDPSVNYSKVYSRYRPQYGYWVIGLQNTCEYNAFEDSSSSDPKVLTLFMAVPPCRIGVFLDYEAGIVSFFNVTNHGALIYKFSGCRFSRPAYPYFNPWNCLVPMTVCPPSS

Key:
[1] = target: Strep-NSP8 (SARS-CoV-2 non-structural protein 8) (SARS-CoV-2) (UniProt P0DTD1); assay: co-IP
[2] = target: NSP8 from SARS-CoV (SARS-CoV) (UniProt P0C6X7); assay: co-IP

Row | Substance | binding [1] | binding [2]
1 | HECT domain E3 ubiquitin protein ligase 1 (HECTD1), endogenous (from UniProt Q9ULT8 1-2610) | binds | –
2 | TRIM22 in HEK-293T lysate (transfected or endogenous not told) (from UniProt Q8IYM9 1-498) | – | binds
